The target of data set [1] is transferrin (H-TF) (human) (UniProt P02787). As to the kind of experiment: PicoGreen dye-displacement fluorescence. To be noted: fluorescence ex 485 nm / em 528 nm, microplate reader, commercial protein, label: none (label-free, PicoGreen intercalated), single-stranded DNA.
The target of data set [2] is thyroglobulin (TG) (bovine) (UniProt P01267). In words: PicoGreen dye-displacement fluorescence. To be noted: fluorescence ex 485 nm / em 528 nm, microplate reader, commercial protein, label: none (label-free, PicoGreen intercalated), single-stranded DNA.
Data set [3] addresses lactoferrin (LF) (bovine (milk)) (UniProt P24627). In words: CE-SELEX work of the cited paper; Kd method not stated here. To be noted: fluorescence ex 485 nm / em 528 nm, microplate reader; commercial protein; label: none (label-free, PicoGreen intercalated); single-stranded DNA.

Sequences of proteins named here, by UniProt entry; tags and fusion partners are left off. Residues count along the entry.
UniProt P02787, 20-698: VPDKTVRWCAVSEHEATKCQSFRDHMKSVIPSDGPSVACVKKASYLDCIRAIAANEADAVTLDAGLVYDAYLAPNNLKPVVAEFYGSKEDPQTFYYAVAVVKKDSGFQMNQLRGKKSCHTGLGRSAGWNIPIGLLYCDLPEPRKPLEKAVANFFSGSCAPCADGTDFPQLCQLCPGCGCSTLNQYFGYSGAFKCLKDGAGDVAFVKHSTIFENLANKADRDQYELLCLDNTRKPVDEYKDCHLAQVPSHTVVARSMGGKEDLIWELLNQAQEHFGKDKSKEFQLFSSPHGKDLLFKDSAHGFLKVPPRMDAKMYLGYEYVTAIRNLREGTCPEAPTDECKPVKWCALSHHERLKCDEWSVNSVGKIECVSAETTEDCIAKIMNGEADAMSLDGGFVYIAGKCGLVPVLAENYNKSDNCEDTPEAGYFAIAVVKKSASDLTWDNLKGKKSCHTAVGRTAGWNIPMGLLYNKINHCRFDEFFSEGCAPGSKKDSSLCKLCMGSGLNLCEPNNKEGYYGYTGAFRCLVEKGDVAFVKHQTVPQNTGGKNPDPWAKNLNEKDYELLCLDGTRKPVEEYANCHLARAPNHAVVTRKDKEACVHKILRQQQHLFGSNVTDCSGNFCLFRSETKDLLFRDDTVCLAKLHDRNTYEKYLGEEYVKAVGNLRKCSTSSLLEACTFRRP
UniProt P01267, 20-2769: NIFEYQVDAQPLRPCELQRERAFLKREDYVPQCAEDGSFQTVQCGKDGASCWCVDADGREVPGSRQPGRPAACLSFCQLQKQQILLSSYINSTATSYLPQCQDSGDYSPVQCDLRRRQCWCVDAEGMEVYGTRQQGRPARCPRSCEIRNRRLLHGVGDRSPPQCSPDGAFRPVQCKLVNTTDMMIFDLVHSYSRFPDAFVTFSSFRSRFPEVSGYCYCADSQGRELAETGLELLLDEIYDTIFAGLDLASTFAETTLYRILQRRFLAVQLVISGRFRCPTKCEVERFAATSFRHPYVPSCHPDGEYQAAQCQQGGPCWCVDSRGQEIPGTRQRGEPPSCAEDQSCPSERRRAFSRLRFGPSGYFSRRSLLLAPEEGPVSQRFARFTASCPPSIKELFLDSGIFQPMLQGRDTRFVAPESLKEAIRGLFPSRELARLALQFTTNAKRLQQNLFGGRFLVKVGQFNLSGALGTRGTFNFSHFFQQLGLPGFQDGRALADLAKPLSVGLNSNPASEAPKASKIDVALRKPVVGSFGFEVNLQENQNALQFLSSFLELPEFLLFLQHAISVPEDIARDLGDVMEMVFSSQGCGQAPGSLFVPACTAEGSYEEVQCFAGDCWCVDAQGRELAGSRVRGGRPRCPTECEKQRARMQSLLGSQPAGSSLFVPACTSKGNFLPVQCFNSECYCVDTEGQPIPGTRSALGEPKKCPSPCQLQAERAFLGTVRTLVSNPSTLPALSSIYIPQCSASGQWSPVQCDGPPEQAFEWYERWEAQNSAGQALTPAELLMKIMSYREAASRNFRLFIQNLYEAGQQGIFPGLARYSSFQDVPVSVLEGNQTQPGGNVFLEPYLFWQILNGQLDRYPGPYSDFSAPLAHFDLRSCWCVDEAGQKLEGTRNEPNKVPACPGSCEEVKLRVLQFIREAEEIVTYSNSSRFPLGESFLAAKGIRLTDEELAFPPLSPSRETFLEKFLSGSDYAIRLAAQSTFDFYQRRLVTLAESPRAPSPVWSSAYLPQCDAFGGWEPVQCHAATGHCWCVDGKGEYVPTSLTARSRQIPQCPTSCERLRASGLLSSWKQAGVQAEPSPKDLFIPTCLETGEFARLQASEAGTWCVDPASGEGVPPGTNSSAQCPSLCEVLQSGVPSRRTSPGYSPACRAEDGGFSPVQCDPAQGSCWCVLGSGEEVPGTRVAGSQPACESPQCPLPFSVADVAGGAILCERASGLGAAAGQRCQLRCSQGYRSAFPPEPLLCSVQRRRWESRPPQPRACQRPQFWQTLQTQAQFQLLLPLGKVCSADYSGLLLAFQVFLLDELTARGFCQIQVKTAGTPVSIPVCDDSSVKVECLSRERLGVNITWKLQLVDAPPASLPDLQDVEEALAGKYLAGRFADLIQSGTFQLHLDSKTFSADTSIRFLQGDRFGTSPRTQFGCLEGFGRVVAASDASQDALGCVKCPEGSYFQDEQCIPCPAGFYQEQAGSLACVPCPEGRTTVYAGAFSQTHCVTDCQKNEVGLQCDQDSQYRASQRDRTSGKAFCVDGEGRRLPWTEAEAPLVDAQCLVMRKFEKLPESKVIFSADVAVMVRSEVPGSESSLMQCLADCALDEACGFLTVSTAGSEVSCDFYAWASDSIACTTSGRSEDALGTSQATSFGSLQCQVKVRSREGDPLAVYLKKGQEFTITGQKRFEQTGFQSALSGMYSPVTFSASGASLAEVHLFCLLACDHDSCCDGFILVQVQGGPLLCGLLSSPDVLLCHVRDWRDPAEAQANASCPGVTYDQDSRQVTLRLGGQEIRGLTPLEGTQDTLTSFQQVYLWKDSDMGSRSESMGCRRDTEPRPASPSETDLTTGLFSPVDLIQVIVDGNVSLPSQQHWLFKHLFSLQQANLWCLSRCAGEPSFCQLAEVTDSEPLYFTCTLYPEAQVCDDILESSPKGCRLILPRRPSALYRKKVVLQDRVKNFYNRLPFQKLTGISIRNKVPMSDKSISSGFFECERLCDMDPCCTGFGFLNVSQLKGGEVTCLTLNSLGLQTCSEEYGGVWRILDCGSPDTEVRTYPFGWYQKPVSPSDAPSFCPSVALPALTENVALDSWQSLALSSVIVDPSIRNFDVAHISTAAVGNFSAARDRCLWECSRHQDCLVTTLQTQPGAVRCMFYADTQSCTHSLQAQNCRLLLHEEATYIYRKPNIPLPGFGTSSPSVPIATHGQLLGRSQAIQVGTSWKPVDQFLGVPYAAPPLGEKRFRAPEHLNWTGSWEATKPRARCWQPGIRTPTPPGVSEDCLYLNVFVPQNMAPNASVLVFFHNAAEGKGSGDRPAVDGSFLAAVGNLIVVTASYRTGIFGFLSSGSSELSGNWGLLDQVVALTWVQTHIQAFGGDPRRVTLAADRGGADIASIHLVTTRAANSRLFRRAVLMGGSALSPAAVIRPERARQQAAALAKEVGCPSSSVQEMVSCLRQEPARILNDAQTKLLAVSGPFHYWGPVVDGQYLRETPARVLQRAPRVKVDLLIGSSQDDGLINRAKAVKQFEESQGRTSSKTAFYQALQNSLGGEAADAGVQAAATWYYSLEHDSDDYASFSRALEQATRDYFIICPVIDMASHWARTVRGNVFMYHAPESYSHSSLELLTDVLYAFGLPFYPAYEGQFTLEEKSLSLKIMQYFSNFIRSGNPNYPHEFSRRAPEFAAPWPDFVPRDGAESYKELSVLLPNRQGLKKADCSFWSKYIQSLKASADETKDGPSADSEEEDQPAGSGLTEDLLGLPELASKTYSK
UniProt P24627, 20-708: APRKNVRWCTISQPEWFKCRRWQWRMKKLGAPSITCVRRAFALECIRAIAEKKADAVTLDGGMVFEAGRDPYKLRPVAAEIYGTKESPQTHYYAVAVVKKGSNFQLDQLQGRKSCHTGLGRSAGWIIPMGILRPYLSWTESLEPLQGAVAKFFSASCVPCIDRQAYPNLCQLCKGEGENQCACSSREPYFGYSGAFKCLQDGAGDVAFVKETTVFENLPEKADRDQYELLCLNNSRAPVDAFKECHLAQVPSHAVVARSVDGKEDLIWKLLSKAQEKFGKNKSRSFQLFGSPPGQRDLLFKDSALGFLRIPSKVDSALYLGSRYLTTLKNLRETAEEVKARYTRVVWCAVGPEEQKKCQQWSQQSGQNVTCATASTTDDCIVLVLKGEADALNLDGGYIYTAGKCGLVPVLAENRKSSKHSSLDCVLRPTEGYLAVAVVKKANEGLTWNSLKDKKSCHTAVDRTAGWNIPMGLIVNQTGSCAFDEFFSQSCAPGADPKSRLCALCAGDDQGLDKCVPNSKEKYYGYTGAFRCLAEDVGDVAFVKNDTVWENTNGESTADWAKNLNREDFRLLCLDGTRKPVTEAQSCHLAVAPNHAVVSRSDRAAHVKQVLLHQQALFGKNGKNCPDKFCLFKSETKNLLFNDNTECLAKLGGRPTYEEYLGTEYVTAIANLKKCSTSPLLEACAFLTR

Construct, isoform or probe ends are uncertain for at least one entry. For part of these data: At least one verdict was read from the data and is not stated in words by the source.

Broadly, the Kd is the concentration at which binding is half-saturated.

Regarding “AGCAGCACAGAGGTCAGATGCGACTTGCCTATCGGCATGACACAATCTTTTGGAGCGTAACCTATGCGTGCTACCGTGAA [H-TF aptamer]”, the binding result in data set [1] is recorded as “binds”. With “CCTAACCGATATCACACTCACCGCGTGAGCGGGGAGGCGATGCCCAGGCTAACTTGACTCAGTTGGTCGTCATTGGAGTATC [TG aptamer]”, the binding result in data set [2] is “binds”. In data set [3], “TGGTGCTGCCCCTAGTCTCCGGCTGATAGCTGCTTCTTGG [LF aptamer]” gave a dissociation constant (Kd) of 20.7 nM.
